In paper PMC6857076 (Pharmacology Research & Perspectives, 2019):
Like-named read-outs stand apart in the source and are kept apart here.

What was measured:
IFNα cytokine receptor = test: cells; details: Homo sapiens, Lymphocyte, pSTAT3, lymphocytes
[1] = test system: IL-10 cytokine receptor (JAK1/TYK2); test: Human whole blood, IL-10-induced pSTAT3, lymphocytes; format: cell-based; details: Lymphocyte, read-out: IC50,u, IL-10, pSTAT3

Compound: C[C@@H]1CCN(C(=O)CC#N)C[C@@H]1N(C)c1ncnc2[nH]ccc12 [Tofacitinib]
- IC50 (IFNα cytokine receptor; read-out: human whole blood IFNα IC50, Average, IFNα 5000 U/ml (EC95)): 64 nM
- IC50 (IFNα cytokine receptor; read-out: human whole blood IFNα IC50, Donor A, IFNα 5000 U/ml (EC95)): 62 nM
- IC50 (IFNα cytokine receptor; read-out: human whole blood IFNα IC50, Donor B, IFNα 5000 U/ml (EC95)): 66 nM
- IC50 [1]: 64 nM
